In the supplement of paper PMC6078165:
± gives the standard deviation of the averaged measurements. The reference is the same well before dosing, and untreated signal decays as well.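 Labels refer to human fibroblasts, largely primary: uterine (C12385, HUF), lung (H6013), bone (Hs27A), adrenal (HADF), skin (WS1), plus mammary HMF and breast cancer-associated Hs343T. Cancer lines are basal-like or mesenchymal-like triple-negative breast cancer. The paper counts as hits responses shifting over 3x the replicate standard deviation. The tissue of the other fibroblasts is not given here.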

Tested on: Hs578T
Assay: relative JC-1 red fluorescence (viability) vs pre-drug, coculture with fibroblast (fraction); higher = more viable cancer cells
Conditions: 10 µM
Description: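 JC-1 labelled TNBC cells cocultured 1:1 (1,500 cells each) with CellTrace Violet stained primary or stromal fibroblasts in 384-well plates in FluoroBrite medium, treated with one of 42 anticancer drugs at 0.1, 1, 10 or 100 uM. JC-1 red fluorescence (mitochondrial integrity in cancer cells only) was read by plate reader every 8 h for 72 h. Values are normalised to each well's pre-drug value. The stock of one drug was tenfold lower, so its dose labels may be too high.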

CCC1=C[C@@H]2CN(C1)Cc1c([nH]c3ccccc13)[C@@](C(=O)OC)(c1cc3c(cc1OC)N(C)[C@H]1[C@@](O)(C(=O)OC)[C@H](OC(C)=O)[C@]4(CC)C=CCN5CC[C@]31[C@@H]54)C2 [Vinorelbine]
Conditions | relative JC-1 red fluorescence
8 h | 0.975 ± 0.011
16 h | 0.91581 ± 8.8e-05
24 h | 0.8649 ± 0.0023
32 h | 0.7784 ± 0.0018
40 h | 0.6787 ± 0.0058
48 h | 0.637 ± 0.011
56 h | 0.62 ± 0.013
64 h | 0.582 ± 0.032
72 h | 0.571 ± 0.05

relative JC-1 red fluorescence
Conditions | 8 h | 16 h | 24 h | 32 h | 40 h | 48 h | 56 h | 64 h | 72 h
coculture fibroblast: C12385 | 0.8213 ± 0.0046 | 0.76 ± 0.026 | 0.667 ± 0.013 | 0.619 ± 0.012 | 0.525 ± 0.015 | 0.485 ± 0.021 | 0.441 ± 0.039 | 0.401 ± 0.046 | 0.386 ± 0.055
coculture fibroblast: H6013 | 0.8736 ± 0.0006 | 0.8569 ± 0.0075 | 0.812 ± 0.017 | 0.769 ± 0.021 | 0.709 ± 0.027 | 0.669 ± 0.037 | 0.625 ± 0.054 | 0.607 ± 0.046 | 0.563 ± 0.03
coculture fibroblast: H6019 | 0.814 ± 0.027 | 0.796 ± 0.032 | 0.771 ± 0.025 | 0.707 ± 0.018 | 0.648 ± 0.031 | 0.616 ± 0.018 | 0.576 ± 0.029 | 0.539 ± 0.021 | 0.518 ± 0.027
coculture fibroblast: H6076 | 0.866 ± 0.17 | 0.948 ± 0.036 | 0.942 ± 0.037 | 0.865 ± 0.052 | 0.723 ± 0.068 | 0.694 ± 0.057 | 0.629 ± 0.048 | 0.603 ± 0.058 | 0.557 ± 0.061
coculture fibroblast: H6231 | 0.967 ± 0.029 | 0.906 ± 0.01 | 0.894 ± 0.059 | 0.804 ± 0.059 | 0.715 ± 0.039 | 0.682 ± 0.037 | 0.631 ± 0.04 | 0.597 ± 0.028 | 0.563 ± 0.033
coculture fibroblast: HADF | 0.916 ± 0.038 | 0.876 ± 0.062 | 0.801 ± 0.059 | 0.736 ± 0.035 | 0.667 ± 0.038 | 0.637 ± 0.036 | 0.583 ± 0.037 | 0.554 ± 0.045 | 0.502 ± 0.057
coculture fibroblast: HCFa | 0.9198 ± 0.0022 | 0.925 ± 0.014 | 0.914 ± 0.016 | 0.861 ± 0.055 | 0.8 ± 0.066 | 0.775 ± 0.081 | 0.73 ± 0.09 | 0.694 ± 0.099 | 0.65 ± 0.1
coculture fibroblast: HCPF | 0.905 ± 0.11 | 0.986 ± 0.017 | 0.938 ± 0.034 | 0.868 ± 0.038 | 0.758 ± 0.018 | 0.7221 ± 0.00073 | 0.658 ± 0.021 | 0.607 ± 0.036 | 0.542 ± 0.032
coculture fibroblast: HHSteC | 0.937 ± 0.03 | 0.917 ± 0.053 | 0.888 ± 0.067 | 0.818 ± 0.048 | 0.728 ± 0.053 | 0.67 ± 0.043 | 0.631 ± 0.014 | 0.602 ± 0.029 | 0.566 ± 0.036
coculture fibroblast: HMF | 0.92 ± 0.056 | 0.839 ± 0.19 | 0.979 ± 0.023 | 0.908 ± 0.013 | 0.7811 ± 0.0067 | 0.718 ± 0.027 | 0.661 ± 0.038 | 0.615 ± 0.045 | 0.58 ± 0.054
coculture fibroblast: HPFa | 0.93 ± 0.027 | 0.882 ± 0.015 | 0.827 ± 0.035 | 0.722 ± 0.074 | 0.647 ± 0.043 | 0.623 ± 0.041 | 0.583 ± 0.03 | 0.546 ± 0.037 | 0.504 ± 0.033
coculture fibroblast: HUF | 0.8898 ± 0.0035 | 0.811 ± 0.0084 | 0.795 ± 0.028 | 0.725 ± 0.021 | 0.662 ± 0.02 | 0.61 ± 0.033 | 0.564 ± 0.018 | 0.535 ± 0.016 | 0.512 ± 0.015
coculture fibroblast: Hs27A | 0.956 ± 0.025 | 0.92 ± 0.024 | 0.867 ± 0.03 | 0.787 ± 0.031 | 0.7 ± 0.058 | 0.686 ± 0.054 | 0.676 ± 0.063 | 0.664 ± 0.042 | 0.629 ± 0.029
coculture fibroblast: Hs343T | 0.871 ± 0.069 | 0.9691 ± 0.0014 | 0.919 ± 0.025 | 0.875 ± 0.011 | 0.739 ± 0.0011 | 0.692 ± 0.026 | 0.623 ± 0.0074 | 0.575 ± 0.013 | 0.536 ± 0.0058
coculture fibroblast: WS1 | 0.825 ± 0.026 | 0.753 ± 0.036 | 0.681 ± 0.048 | 0.609 ± 0.015 | 0.56 ± 0.02 | 0.526 ± 0.022 | 0.4763 ± 0.0014 | 0.4393 ± 0.0034 | 0.407 ± 0.017
